From ChEMBL document CHEMBL3988442, “University of Dundee, Small-Polar-MMV Screening Library” (2021).

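Assay on Mycobacterium tuberculosis, filed only as a heat shock assay from Cornell; the read-out is not stated. The concentration is filed as 10 mM, unlikely as a test dose, so the dose is not known. The record gives no direction; compounds that gave an IC50 in retests scored well above the rest, so higher reads as stronger inhibition. Of about 69,000 compounds tested this way, about 930 (1.4%) reached 50% or more in at least one test.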

Results are given as percent effect.
The controls that fix the scale are not given in the record; negative values are as filed.
This is an unselected part of the compounds tested.

| SMILES | percent effect |
|---|---|
| `Cc1cccc(CCC(=O)N2CCOCC2c2c(C)n[nH]c2C)c1` (centres unmarked) | -11.44 |
| `O=C(CS(=O)(=O)c1ccccc1Cl)NC1CCCCNC1=O` (centres unmarked) | -6.199 |
| `Cc1cc(C)n(CCCNC(=O)C(C)NC(=O)CC2CCCCC2)n1` (centres unmarked) | -20.9 |
| `NC(=O)c1cn2cc(-c3ccccc3Cl)n(CC3CC3)c(=O)c2n1` | 18.61 |
| `CSCC(=O)N1CCCC(n2ccnc2C(C)C)C1` (centres unmarked) | 9.574 |
| `Cc1cc(C)n(CC(C)Nc2nc(-c3ccncc3)nc3c2CNC3)n1` (centres unmarked) | -4.769 |
| `CC1(C)CNC(=O)CN(C(=O)CCc2ccccc2)C1` | -1.706 |
| `CCC(CC)(CCCNC(=O)c1c(C)noc1C)C1OCCO1` | -0.3465 |
| `CC(C)c1nccn1-c1cccc(C2CCCN(C3CCCC3)C2)n1` (centres unmarked) | -2.291 |
| `O=C(CN1CCOCC1)N1CCC2(CCCN(C3CCOCC3)C2=O)C1` (centres unmarked) | -6.874 |
| `CS(=O)(=O)N1CCc2c(cccc2NC(=O)CC(F)(F)F)C1` | -6.907 |
| `CC(=O)NCC(=O)N1CCN(Cc2ccncc2)c2ncccc2C1` | -9.625 |
| `Cc1cc2n(n1)CC(CNCc1cnn(-c3ccccc3)c1)CN2` (centres unmarked) | 0.03823 |
| `CCN1CCn2c(C)cnc2C12CCN(C(=O)COC)CC2.O=C(O)C(F)(F)F.O=C(O)C(F)(F)F` | -13.45 |
| `O=C(CCN1CCN(c2ccc3nncn3n2)CC1)NC1CCCC1` | -7.134 |
| `CNC(=O)c1cn[nH]c1C1(C)CCCN(Cc2ccccn2)C1` (centres unmarked) | -11.31 |
| `CCN(CCn1cccn1)C(=O)CN1C(=O)OC[C@@H]1c1ccccc1` | 3.149 |
| `Cc1cc2nccc(C3CCN(C(=O)c4ccccc4F)CC3)n2n1` | -14.81 |
| `O=C1NCCN1C1CCN(CC(O)c2ccccc2F)CC1` (centres unmarked) | -1.712 |
| `CC(C)c1ccc(OCCC(=O)N2CCCC(C(N)=O)C2)cc1` (centres unmarked) | -21.36 |
| `CCn1cc(NC(=O)N2CCN(CCSc3ccccc3)CC2)cn1` | 10.28 |
| `O=C(NCc1ccncc1)N1CC(Cc2ccccc2F)C1` | -31.89 |
| `CCCc1n[nH]c(C2CN(C(=O)CCCn3ccnc3)CCO2)n1` (centres unmarked) | -8.005 |
| `N#Cc1ccc(CCC(=O)N2CCCC(n3cncn3)C2)cc1` (centres unmarked) | -9.271 |
| `CCc1ccc(C(=O)N2CCC(O)(CN3CCOCC3)C(C)(C)C2)[nH]1` (centres unmarked) | -5.21 |
| `Cl.Cl.O=C(NCc1cncc2c1CCN(C1CCOCC1)C2)c1ccno1` | 18.25 |
| `O=C(Cn1cc(C(=O)O)ccc1=O)Nc1cc(F)ccc1F` | 8.184 |
| `CC(C)N(C)S(=O)(=O)N(C)Cc1cnn(C)c1` | 24.59 |
| `Cc1cn2c(CN(C)C(=O)c3cnc(N)c(Cl)c3)c(C)nc2s1` | -12.59 |
| `Cc1ccc2nc(CN3CCN(C4CCCCC4)C(=O)C3)cc(O)c2c1` | 4.077 |
| `CCN(CC)S(=O)(=O)c1ccc2c(c1)N(Cc1ccccn1)C(=O)CS2` | -10.47 |
| `O=c1c(Cc2ccc(Cl)cc2Cl)c(O)ccn1CC1CC1` | 15.55 |
| `Cc1noc(C)c1CNc1cccc(C(=O)N(C)c2ccccc2)c1` | -13.91 |
| `Cc1nc(CN2CCCn3nc(CNC(=O)C4CCC4)cc3C2)co1` | -11.63 |
| `NC(=O)C1Cn2ccnc2C2(CCN(C(=O)c3ccncc3)CC2)O1` (centres unmarked) | 1.567 |
| `CC(C)N(C)Cc1ncn2c1CN(C(=O)C1CCCO1)CCC2` (centres unmarked) | 5.765 |
| `Cl.NC1CCc2nc(-c3cccnc3)nc(Nc3ccc(F)cc3)c2C1` (centres unmarked) | 99.91 |
| `CN(Cc1cnn(-c2ccccc2)n1)CC1CCCN1c1cccnn1` (centres unmarked) | 11.71 |
| `NC(=O)N1CCCCCC1C1CCN(c2nccc(C(F)(F)F)n2)CC1` (centres unmarked) | 0.5583 |
| `CCC1CCCCN1CCNC(=O)N1CCN(Cc2ccon2)CC1` (centres unmarked) | -35.05 |
| `COc1ccc(CN2CCCC2)cc1Oc1cccc(C#N)n1` | -3.512 |
| `[H][C@@]12CN(c3cnccn3)C[C@]1([H])N(CCCc1ccc(F)cc1)C(=O)O2` | 9.236 |
| `Cc1oncc1C(=O)NCC(c1ccccc1Cl)N1CCOCC1` (centres unmarked) | 3.471 |
| `COCCOCC(=O)NC(C#N)c1cc(Cl)cc(Cl)c1` (centres unmarked) | -1.425 |
| `O=c1ccc(-c2cccs2)nn1CN1CCOC(c2ccccc2)C1` (centres unmarked) | -25.19 |
| `[H][C@@]12CS(=O)(=O)C[C@]1([H])N(C(=O)c1snnc1C)CCN2CC=C(C)C` | -13.24 |
| `CCOCC1CN(Cc2ccc3c(c2)OCO3)Cc2nccn2C1` (centres unmarked) | -6.346 |

The first 5 entries again:

* Cc1cccc(CCC(=O)N2CCOCC2c2c(C)n[nH]c2C)c1 (centres unmarked) : -11.44%
* O=C(CS(=O)(=O)c1ccccc1Cl)NC1CCCCNC1=O (centres unmarked) : -6.199%
* Cc1cc(C)n(CCCNC(=O)C(C)NC(=O)CC2CCCCC2)n1 (centres unmarked) : -20.9%
* NC(=O)c1cn2cc(-c3ccccc3Cl)n(CC3CC3)c(=O)c2n1 : 18.61%
* CSCC(=O)N1CCCC(n2ccnc2C(C)C)C1 (centres unmarked) : 9.574%